These are yes or no findings as the source states them, for the method shown. Some results given as binding are weak or reduced against the parent protein; the word gives no strength. For some assays here: Where a sequence is shown, tags or fusion partners need not be part of it.
Key:
[1] = molecular target: human ICOS on activated human T cells (human) (UniProt Q9Y6W8); test: flow cytometry ex vivo with PE conjugated mouse anti human IgG4, FIG. 27
[2] = molecular target: human ICOS on activated human T cells (human) (UniProt Q9Y6W8); test: flow cytometry, H2L5 at 20 µg/mL on naive and activated CD4+ and CD8+ T cells of healthy donors
[3] = molecular target: human ICOS on activated human T cells (human) (UniProt Q9Y6W8); test: flow cytometry ex vivo, human PBMC engrafted NSG mice with A549 tumors
[4] = molecular target: T1, rabbit Fc-tagged recombinant extracellular human ICOS (human) (UniProt Q9Y6W8); test: SPR (Biacore), FIG. 15A
T1 sequence: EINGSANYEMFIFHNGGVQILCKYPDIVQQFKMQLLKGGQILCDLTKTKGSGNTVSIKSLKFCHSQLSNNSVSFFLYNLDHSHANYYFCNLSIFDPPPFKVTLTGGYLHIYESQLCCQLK

[5] = molecular target: human ICOS on activated human T cells (human) (UniProt Q9Y6W8); test: flow cytometry, FIG. 15C
[6] = molecular target: human ICOS on activated human T cells (human) (UniProt Q9Y6W8); test: flow cytometry, detected with anti-human IgG kappa light chain FITC
[7] = molecular target: human ICOS on activated human T cells (human) (UniProt Q9Y6W8); test: flow cytometry of whole blood of human PBMC engrafted NSG mice with A549 tumors, 48 hours after the 4th dose; bound antibody detected with PE mouse anti-human IgG4 [D00062 FIG. 27A CONT.]
[8] = molecular target: T2, recombinant ICOS protein (R&D Systems) (human) (UniProt Q9Y6W8); test: MSD competition assay: coated recombinant ICOS, H2L5 titrated, then 1 µg/mL human ICOS ligand (B7-H2) detected with biotinylated anti-ICOS-L
T2 sequence: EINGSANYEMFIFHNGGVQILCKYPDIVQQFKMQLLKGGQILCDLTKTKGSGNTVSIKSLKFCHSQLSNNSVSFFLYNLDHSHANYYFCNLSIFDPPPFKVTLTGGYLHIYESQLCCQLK

[9] = molecular target: human ICOS on activated human T cells (human) (UniProt Q9Y6W8); test: flow cytometry of tumor tissue of human PBMC engrafted NSG mice with A549 tumors, 48 hours after the 4th dose; bound antibody detected with PE mouse anti-human IgG4 [D00063 FIG. 27B CONT.]
[10] = molecular target: human ICOS on activated human T cells (human) (UniProt Q9Y6W8); test: flow cytometry ex vivo with PE anti-human IgG4 on CD8 T cells of human-PBMC NSG mice bearing A549 tumors, after dosing with H2L5
[11] = molecular target: human ICOS on activated human T cells (human) (UniProt Q9Y6W8); test: live fluorescence microscopy: labeled H2L5 at 3 µg/mL on anti-CD3 pre-stimulated human T cells co-cultured with dendritic cells

Measured: binding

B1: H2L5 IgG4PE (antibody, V domains shown)
VH: QVQLVQSGAEVKKPGSSVKVSCKASGYTFTDYAMHWVRQAPGQGLEWMGLISIYSDHTNYNQKFQGRVTITADKSTSTAYMELSSLRSEDTAVYYCGRNNYGNYGWYFDVWGQGTTVTVSS
VL: EIVLTQSPATLSLSPGERATLSCSASSSVSYMHWYQQKPGQAPRLLIYDTSKLASGIPARFSGSGSGTDYTLTISSLEPEDFAVYYCFQGSGYPYTFGQGTKLEIK
notes: Human IgG4 with Fc mutations S228P and L235E (EU numbering), called IgG4PE; humanized variant of murine clone 422.2; also called ICOS IgG4PE; H2L5 (ICOS) IgG4PE
binds: all assays above
